Results deposited as PubChem BioAssay AID1159578 (Peter MacCallum Cancer Centre, 2015).

- Purpose: 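siRNA pools altering how lymphatic endothelial cells close a scratch wound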 (primary screen)
- Cells: human lymphatic endothelial cells
- Reagent: siRNA pool against human genes, 40 nM
- Duration: 48 h after transfection
- Measurement: 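Cells stained with dye and imaged after a scratch; covered wound area and nuclei counted, duplicates averaged, migration set against mock wells and turned into a robust z-score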
- Scale: migration robust z-score: higher = faster migration into the scratch; nuclei per well: higher = more cells in the well
- Call rule: 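Pools averaging fewer than 3300 nuclei are never called; remaining pools count as changed when migration robust z lies outside -2 to 2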
- Meaning of the calls: active = migration changed; inactive = no migration change, or too few cells
The whole screen tested about 18,000 reagents; below is an unselected part. About 1,030 of them (5.7%) were called active. 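Inactive calls also include pools with fewer than 3300 nuclei, whose migration was not assessed.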 Raw values vary from plate to plate and are shown uncorrected. Further read-outs or replicates are left out here.

PLCG2: migration robust z-score = -1.29; nuclei per well, duplicate mean = 5124; Call = inactive
TMEM176B: migration robust z-score = -0.72; nuclei per well, duplicate mean = 5760; Call = inactive
CDIN1: migration robust z-score = -0.23; nuclei per well, duplicate mean = 6680; Call = inactive
RTN4RL1: migration robust z-score = -0.16; nuclei per well, duplicate mean = 6508; Call = inactive
SERPINE1: migration robust z-score = -0.24; nuclei per well, duplicate mean = 5178; Call = inactive
UVRAG: migration robust z-score = 0; nuclei per well, duplicate mean = 6129; Call = inactive
TTYH2: migration robust z-score = 0.18; nuclei per well, duplicate mean = 5410; Call = inactive
ANAPC10: migration robust z-score = -0.31; nuclei per well, duplicate mean = 6493; Call = inactive
CPO: migration robust z-score = 0.16; nuclei per well, duplicate mean = 5511; Call = inactive
DNAJC4: migration robust z-score = -0.78; nuclei per well, duplicate mean = 5787; Call = inactive
ZNF697: migration robust z-score = 1.04; nuclei per well, duplicate mean = 4838; Call = inactive

Looked up above:
SERPINE1, migration robust z-score → -0.24
Result for DNAJC4 under “Call”: inactive

Additional entries follow.
DNAJC7: migration robust z-score = -0.7; nuclei per well, duplicate mean = 5040; Call = inactive
RTBDN: migration robust z-score = -0.08; nuclei per well, duplicate mean = 5287; Call = inactive
LRRC36: migration robust z-score = -0.28; nuclei per well, duplicate mean = 6081; Call = inactive
ALDOB: migration robust z-score = 0.96; nuclei per well, duplicate mean = 4432; Call = inactive
CCDC157: migration robust z-score = 0.67; nuclei per well, duplicate mean = 5890; Call = inactive
NMD3: migration robust z-score = -0.62; nuclei per well, duplicate mean = 6640; Call = inactive
CEP95: migration robust z-score = 0.22; nuclei per well, duplicate mean = 4314; Call = inactive
UST: migration robust z-score = -0.88; nuclei per well, duplicate mean = 5007; Call = inactive
PRR15: migration robust z-score = 0.02; nuclei per well, duplicate mean = 6048; Call = inactive
CAMK4: migration robust z-score = -0.08; nuclei per well, duplicate mean = 5428; Call = inactive
RERGL: migration robust z-score = 1.02; nuclei per well, duplicate mean = 5158; Call = inactive
EAPP: migration robust z-score = 0.17; nuclei per well, duplicate mean = 6728; Call = inactive
MAGEA12: migration robust z-score = -0.79; nuclei per well, duplicate mean = 5275; Call = inactive
MSANTD3: migration robust z-score = -0.24; nuclei per well, duplicate mean = 6274; Call = inactive
MCF2L: migration robust z-score = 1.11; nuclei per well, duplicate mean = 5329; Call = inactive
KRT40: migration robust z-score = -0.79; nuclei per well, duplicate mean = 3182; Call = inactive
